Test results as given in patent US20250000128A1, “SALTINESS ENHANCING COMPOSITION, AND COMPOSITION FOR ORAL USE AND METHOD OF ENHANCING SALTINESS THEREOF” (Nagase Viita Co., Ltd., priority 2021, published 2025).

Assay: Sensory evaluation of saltiness enhancing effect of salt coated with enzyme-treated naringin (Experiment 5)
Assay type: in vivo, human

CC1O[C@@H](OC2C(O[C@H]3OC(CO)[C@@H](O)C(O)C3O)[C@H](O)C(CO)O[C@H]2Oc2cc(O)c3c(c2)OC(c2ccc(O)cc2)CC3=O)C(O)C(O)[C@H]1O (stereo partly drawn) [3″-α-GN, 3″-α-monoglucosyl naringin]
Bitterness (all of the test samples from Experiment 5, including the test sample 15, sprayed as enzyme-treated naringin): without showing bitterness
Bitterness (test sample 18 (3″-α-GN 3500 ppm), sprayed as enzyme-treated naringin): strong bitterness
